Measurements as given in patent publication US5712160A, “Method of stimulating growth using neurotrophic peptides” (Board of Regents, The University of Texas System, priority 1995, dated 1998).
At least one peptide structure holds a part that was inferred or is arguable (an end, a ring closure or a residue). Some compounds share one wording; it may come from a single statement. Residues, ends and D or L forms follow the SMILES beside them.

Assays:
PC12 cells = type: cell-based, rat; details: for PC12 cell survival accentuation: Example 4, function of amount of peptide; for change in protein synthesis / cell survival: serum-free, fixed amount of NGF, peptide 0.1 to 100 ug/ml
Procedure: Cell Culture. Stock cultures of PC12 cells are maintained in a medium consisting of RPMI 1640 supplemented with (v/v) 5% fetal calf serum and 5% horse serum ("complete medium"). At alternate feedings, media containing 1% PSN antibiotic mixture is used, consisting of 5 mg penicillin +5 mg streptomycin +10 mg neomycin/ml. Cells are grown in a humidified atmosphere containing 5% CO2. Cells are split once weekly in a 1:12 ratio by vigorous shaking and trituration. For experiments, PC12 cells are dislodged by shaking, centrifuged at 800×g, diluted in Puck's saline, counted in a hemocytometer, and plated on poly-D-lysine coated polystyrene tissue culture pates. For experiments to be performed in defined, serum-free medium, a modification of the N1 medium of Bottenstein et al. is used consisting of RPMI 1640 supplemented with insulin 5 ug/ml, transferrin 5 ug/ml, 20 nM progesterone, 100 μM putrescine, and 30 nM sodium selenite. Cells are plated in complete medium and allowed to attach overnight before washing twice with serum-free RPMI and addition of N1 medium. For experiments. examining effects of NGF on cell survival following serum deprivation, cells are plated in complete medium and allowed to attach overnight. Cells are then washed once with RPMI containing sheep anti-mouse beta-NGF to remove any residual NGF from serum. After washing once in RPMI, cells receive varying doses of NGF in RPMI. Media is changed on the third day of serum deprivation. On the fourth day, viability is assessed by ^35 S-methionine incorporation into trichloroacetic acid precipitable proteins. The effects of NGF on the response of PC12 cells to peptides is also examined by reduction of the dye 3, (4,5-dimethylthiazol-2-yl)-2,5-diphenyl-tetrazolium (MTT). For experiments using MTT, cells (1×10^4) are plated on poly-D-lysine coated 6 mm wells (96 well plates). Cells are allowed to attach overnight before addition of NGF and/or peptide. After 24 hr, media is removed and replaced with RPMI 1640 medium without serum. Following a 24 hour recovery period, each well is incubated with MTT for 4 hours at 37° C. Formaxan crystals are then solubilized in isopropanol containing 0.04N HCl and plates read on an ELISA reader using test and reference wavelengths of 570 and 630 nm, respectively. All statistics are performed by computer-assisted methods using the Number Cruncher for Statistical Sciences (NCSS) package. Either student's t-test or analysis of variance (ANOVA) followed by Fischer's least significant difference test are used.
The survival of PC12 cells was measured as a function of the amount of peptide P4.
Cells were plated out as mentioned above in RPMI 1640 without serum but in the presence of a fixed amount of NGF with varying amounts of peptide from 0.1 to 100 ug/ml (day one). On day three, the serum free medium was changed as on day one. On day four, the medium was replaced with 2 uCi/ml ^35 S-Met, Met free conditioned medium for 4 hours at 37° C. Cells were lysed with NaOH. The incorporation of ^35 S-Met into protein was determined by TCA precipitation and protein assay.

[1] = test system: NGF receptor on PC12 cells; details: for binding of labeled NGF to PC12 cells (FIG. 5): lower peptide concentrations measured (1.3 μg)

SMILES	PC12 cell survival accentuation (PC12 cells)	change in protein synthesis / cell survival (PC12 cells)	binding of labeled NGF to PC12 cells (FIG. 5) [1]	displacement of bound labeled NGF from PC12 cells (FIG. 5) ([1]; peptide at concentrations higher than about 1.5 μg)	effect on binding of 125I-NGF to its receptor ([1]; peptide 0.01 to 50 ug/ml, 125I-NGF 5 ng/ml, PC12 cells)
CC(C)[C@H](NC(=O)[C@@H](NC(=O)[C@H](CC(N)=O)NC(=O)[C@H](CCC(N)=O)NC(=O)[C@H](CCCCN)NC(=O)[C@H](CC(=O)O)NC(=O)[C@@H](N)CCC(N)=O)[C@@H](C)O)C(=O)N[C@@H](CS)C(=O)N[C@@H](CCC(=O)O)C(=O)N[C@@H](CCC(=O)O)C(=O)N[C@@H](CS)C(=O)N1CCC[C@H]1C(=O)N[C@@H](CCC(=O)O)C(=O)O [P3, Gln--Asp--Lys--Gln--Asn--Thr--Val--Cys--Glu--Glu--Cys--Pro--Glu--OH] (H-QDKQNTVCEECPE-OH)	not as effective as P4	no significant change	amplified	effective in displacing bound labeled NGF	–
N[C@@H](CS)C(=O)N[C@@H](CCC(=O)O)C(=O)N[C@@H](CCC(=O)O)C(=O)N[C@@H](CS)C(=O)N1CCC[C@H]1C(=O)N[C@@H](CCC(=O)O)C(=O)O [P1, Cys--Glu--Glu--Cys--Pro--Glu--OH] (H-CEECPE-OH)	did not demonstrate cell survival accentuation	no significant change	Neither P1 nor P2 had any positive effect	–	no effect
CC(C)[C@H](NC(=O)[C@@H](NC(=O)[C@@H](N)CC(N)=O)[C@@H](C)O)C(=O)N[C@@H](CS)C(=O)N[C@@H](CCC(=O)O)C(=O)N[C@@H](CCC(=O)O)C(=O)N[C@@H](CS)C(=O)N1CCC[C@H]1C(=O)N[C@@H](CCC(=O)O)C(=O)O [P2, Asn--Thr--Val--Cys--Glu--Glu--Cys--Pro--Glu--OH] (H-NTVCEECPE-OH)	did not demonstrate cell survival accentuation	no significant change	Neither P1 nor P2 had any positive effect	–	–
